Reference: patent US4224332A, “1-Aza-[2,2,2]-bicyclooctanes and anti-depressant and anti-parkinsonian compositions thereof” (Pharmindustrie, priority 1978, dated 1980)

Key:
Assay type in all cases: biochemical
Details in all cases: in vitro
[1] = system: uptake of the noradrenaline (NA); assay: inhibition of the uptake of noradrenaline (NA) by synaptosomes of the rat's brain, hypothalamus
[2] = system: uptake of the serotonine (5-HT); assay: inhibition of the uptake of serotonine (5-HT) by synaptosomes of the rat's brain, medulla + pons
uptake of the choline = assay: inhibition of the uptake of choline by synaptosomes of the rat's brain, striatum

Compound `CN1Cc2c(N)cccc2C(c2ccccc2)C1` (stereo not drawn) [Nomifensine, reference compound] has an IC50 [1] of 0.022 µM, an IC50 [2] of 4 µM and an IC50 (uptake of the choline) of 1000 µM.
